Experimental data as given in PMC10869706, “Chp1 is a dedicated chaperone at the ribosome that safeguards eEF1A biogenesis” (Nature Communications, 2024).
No constants are given. Whether binding was seen depends on the method and setting. In cells and extracts the contact can be indirect. Some entries that bind do so weakly or less than the wild type.

Target: T1, Egd2 co-expressed in E. coli (yeast (S. cerevisiae)) (UniProt P38879)
T1 sequence: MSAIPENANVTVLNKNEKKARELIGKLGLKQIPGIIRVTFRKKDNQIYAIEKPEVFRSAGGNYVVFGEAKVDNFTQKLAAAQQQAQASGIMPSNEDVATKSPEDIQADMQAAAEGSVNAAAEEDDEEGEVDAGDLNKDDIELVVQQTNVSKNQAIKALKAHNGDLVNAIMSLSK
Assay: pull-down; co-expression in E. coli; soluble lysate in LWB150 (40 mM Hepes-KOH pH 7.4, 150 mM KCl, 5 mM MgCl2, 5% glycerol) put through IMAC (Ni-IDA) by the 6xHis-SUMO tag on Chp1; SDS-PAGE

binding: binds
B1: Egd1 co-expressed in E. coli (protein, UniProt Q02642 1-157)
chain: MPIDQEKLAKLQKLSANNKVGGTRRKLNKKAGSSAGANKDDTKLQSQLAKLHAVTIDNVAEANFFKDDGKVMHFNKVGVQVAAQHNTSVFYGLPQEKNLQDLFPGIISQLGPEAIQALSQLAAQMEKHEAKAPADAEKKDEAIPELVEGQTFDADVE
